Laboratory results: the supplement of paper PMC7666118
This is one part of the list.

Amino acid sequences for entries named in this document (tags omitted). A change or cut given only in a name is not applied to a line headed by its entry.
UniProt P35249, whole entry: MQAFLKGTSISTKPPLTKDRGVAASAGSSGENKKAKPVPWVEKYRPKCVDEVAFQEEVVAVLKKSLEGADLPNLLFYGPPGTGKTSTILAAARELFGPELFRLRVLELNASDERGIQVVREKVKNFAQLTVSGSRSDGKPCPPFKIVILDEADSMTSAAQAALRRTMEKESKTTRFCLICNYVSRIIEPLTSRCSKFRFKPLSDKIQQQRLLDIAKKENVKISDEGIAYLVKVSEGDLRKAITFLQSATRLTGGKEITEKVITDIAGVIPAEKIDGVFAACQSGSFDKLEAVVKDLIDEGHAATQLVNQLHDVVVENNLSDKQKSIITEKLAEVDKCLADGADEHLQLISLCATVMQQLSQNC
UniProt O75150, whole entry: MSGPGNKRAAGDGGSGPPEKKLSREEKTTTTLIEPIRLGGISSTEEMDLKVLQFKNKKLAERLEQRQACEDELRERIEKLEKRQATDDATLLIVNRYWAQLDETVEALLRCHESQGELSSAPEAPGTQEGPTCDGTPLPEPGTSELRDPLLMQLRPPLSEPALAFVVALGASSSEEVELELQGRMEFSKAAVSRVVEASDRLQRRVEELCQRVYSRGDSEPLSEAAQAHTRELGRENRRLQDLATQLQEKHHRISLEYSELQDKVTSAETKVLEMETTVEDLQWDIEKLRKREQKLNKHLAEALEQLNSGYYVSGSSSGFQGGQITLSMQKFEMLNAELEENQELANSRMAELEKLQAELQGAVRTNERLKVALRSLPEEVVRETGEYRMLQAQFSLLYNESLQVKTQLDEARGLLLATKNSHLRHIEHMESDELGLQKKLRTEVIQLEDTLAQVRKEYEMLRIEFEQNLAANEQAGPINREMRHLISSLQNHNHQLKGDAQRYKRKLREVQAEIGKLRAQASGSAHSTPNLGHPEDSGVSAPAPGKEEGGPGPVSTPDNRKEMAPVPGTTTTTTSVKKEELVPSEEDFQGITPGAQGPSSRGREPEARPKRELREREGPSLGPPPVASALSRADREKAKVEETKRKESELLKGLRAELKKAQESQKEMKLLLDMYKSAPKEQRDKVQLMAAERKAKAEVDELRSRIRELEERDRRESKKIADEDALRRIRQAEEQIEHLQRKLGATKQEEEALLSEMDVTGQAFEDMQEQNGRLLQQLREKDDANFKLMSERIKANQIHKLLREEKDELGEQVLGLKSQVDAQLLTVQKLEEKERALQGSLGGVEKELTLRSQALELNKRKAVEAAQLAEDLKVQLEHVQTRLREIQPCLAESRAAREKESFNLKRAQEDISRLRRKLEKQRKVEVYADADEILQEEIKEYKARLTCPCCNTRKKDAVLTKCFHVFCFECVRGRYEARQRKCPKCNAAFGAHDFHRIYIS
UniProt Q5XPI4: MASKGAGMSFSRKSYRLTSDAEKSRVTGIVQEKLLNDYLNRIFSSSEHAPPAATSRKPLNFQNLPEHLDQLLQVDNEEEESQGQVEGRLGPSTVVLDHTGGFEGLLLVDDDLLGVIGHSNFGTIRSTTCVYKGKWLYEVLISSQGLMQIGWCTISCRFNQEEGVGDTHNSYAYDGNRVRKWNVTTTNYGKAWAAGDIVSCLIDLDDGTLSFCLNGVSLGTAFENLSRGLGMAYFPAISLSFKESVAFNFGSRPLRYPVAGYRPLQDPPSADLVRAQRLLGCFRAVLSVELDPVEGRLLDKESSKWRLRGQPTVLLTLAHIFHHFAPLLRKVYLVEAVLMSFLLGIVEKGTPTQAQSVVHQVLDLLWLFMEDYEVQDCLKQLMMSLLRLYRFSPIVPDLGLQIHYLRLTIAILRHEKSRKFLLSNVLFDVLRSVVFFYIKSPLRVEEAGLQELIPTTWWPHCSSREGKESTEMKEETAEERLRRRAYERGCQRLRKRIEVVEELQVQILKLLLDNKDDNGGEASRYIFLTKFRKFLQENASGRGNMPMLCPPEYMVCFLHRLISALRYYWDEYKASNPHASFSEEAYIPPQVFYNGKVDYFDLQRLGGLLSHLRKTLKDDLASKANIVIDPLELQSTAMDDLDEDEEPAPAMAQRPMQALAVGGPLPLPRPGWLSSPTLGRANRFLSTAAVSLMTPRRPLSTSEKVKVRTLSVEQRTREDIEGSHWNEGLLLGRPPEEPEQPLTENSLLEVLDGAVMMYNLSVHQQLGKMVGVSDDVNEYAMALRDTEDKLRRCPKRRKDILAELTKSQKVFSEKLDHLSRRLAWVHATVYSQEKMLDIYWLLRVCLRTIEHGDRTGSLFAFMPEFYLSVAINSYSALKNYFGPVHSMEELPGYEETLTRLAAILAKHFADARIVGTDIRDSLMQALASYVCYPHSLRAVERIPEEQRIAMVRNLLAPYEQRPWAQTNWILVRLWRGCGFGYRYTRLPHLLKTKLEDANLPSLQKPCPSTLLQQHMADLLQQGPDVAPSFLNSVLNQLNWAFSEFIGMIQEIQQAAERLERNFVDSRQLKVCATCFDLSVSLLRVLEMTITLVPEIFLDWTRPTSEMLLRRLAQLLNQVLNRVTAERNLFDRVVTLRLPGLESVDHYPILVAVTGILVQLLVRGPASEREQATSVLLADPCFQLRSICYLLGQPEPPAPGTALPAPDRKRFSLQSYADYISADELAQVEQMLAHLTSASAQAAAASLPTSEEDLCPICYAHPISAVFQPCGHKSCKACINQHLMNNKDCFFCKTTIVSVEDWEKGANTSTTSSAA
UniProt P35244: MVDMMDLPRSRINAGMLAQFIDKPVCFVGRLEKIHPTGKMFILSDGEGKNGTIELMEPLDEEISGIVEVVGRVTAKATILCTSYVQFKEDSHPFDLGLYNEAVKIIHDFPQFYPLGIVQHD
UniProt Q92766: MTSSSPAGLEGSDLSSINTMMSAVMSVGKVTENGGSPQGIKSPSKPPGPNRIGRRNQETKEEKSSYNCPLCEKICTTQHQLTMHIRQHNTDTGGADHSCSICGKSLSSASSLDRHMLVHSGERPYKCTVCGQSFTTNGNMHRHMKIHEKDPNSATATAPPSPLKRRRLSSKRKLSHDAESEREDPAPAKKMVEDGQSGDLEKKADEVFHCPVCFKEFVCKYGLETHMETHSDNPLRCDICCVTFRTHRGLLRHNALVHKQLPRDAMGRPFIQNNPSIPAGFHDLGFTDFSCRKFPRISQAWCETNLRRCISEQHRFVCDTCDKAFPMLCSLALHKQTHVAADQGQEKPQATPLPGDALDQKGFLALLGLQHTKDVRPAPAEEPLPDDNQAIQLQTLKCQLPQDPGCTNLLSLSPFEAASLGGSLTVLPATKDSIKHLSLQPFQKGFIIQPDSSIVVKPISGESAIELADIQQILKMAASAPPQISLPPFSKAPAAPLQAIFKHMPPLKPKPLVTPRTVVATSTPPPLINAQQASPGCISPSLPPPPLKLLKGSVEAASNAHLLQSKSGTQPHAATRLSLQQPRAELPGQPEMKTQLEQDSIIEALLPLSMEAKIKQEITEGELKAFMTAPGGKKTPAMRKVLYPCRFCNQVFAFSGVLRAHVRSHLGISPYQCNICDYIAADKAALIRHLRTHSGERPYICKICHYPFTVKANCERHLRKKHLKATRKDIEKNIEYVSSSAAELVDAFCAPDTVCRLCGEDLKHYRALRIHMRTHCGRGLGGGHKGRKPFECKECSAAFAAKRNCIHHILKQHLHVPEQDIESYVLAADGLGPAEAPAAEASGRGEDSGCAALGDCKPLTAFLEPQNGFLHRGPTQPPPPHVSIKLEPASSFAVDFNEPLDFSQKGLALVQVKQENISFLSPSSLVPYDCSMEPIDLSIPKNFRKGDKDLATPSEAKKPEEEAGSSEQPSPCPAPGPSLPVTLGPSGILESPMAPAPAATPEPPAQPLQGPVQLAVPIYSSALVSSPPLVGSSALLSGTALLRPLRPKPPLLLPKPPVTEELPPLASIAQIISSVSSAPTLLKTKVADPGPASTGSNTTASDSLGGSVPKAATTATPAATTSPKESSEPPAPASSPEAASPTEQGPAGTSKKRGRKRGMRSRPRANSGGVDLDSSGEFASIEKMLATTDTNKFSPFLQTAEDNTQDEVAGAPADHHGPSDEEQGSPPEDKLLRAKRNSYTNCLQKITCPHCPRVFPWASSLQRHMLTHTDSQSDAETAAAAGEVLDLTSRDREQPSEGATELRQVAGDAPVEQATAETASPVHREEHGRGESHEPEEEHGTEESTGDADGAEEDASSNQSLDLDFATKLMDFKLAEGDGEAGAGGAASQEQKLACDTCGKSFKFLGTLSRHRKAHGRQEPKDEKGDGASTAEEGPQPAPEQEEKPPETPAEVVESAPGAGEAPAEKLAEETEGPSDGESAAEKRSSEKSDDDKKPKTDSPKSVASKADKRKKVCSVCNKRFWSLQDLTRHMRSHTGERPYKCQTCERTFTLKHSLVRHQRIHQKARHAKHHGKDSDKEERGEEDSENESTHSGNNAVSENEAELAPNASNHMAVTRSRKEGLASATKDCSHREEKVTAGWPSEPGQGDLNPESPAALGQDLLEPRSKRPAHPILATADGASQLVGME
UniProt Q5VTR2, whole entry: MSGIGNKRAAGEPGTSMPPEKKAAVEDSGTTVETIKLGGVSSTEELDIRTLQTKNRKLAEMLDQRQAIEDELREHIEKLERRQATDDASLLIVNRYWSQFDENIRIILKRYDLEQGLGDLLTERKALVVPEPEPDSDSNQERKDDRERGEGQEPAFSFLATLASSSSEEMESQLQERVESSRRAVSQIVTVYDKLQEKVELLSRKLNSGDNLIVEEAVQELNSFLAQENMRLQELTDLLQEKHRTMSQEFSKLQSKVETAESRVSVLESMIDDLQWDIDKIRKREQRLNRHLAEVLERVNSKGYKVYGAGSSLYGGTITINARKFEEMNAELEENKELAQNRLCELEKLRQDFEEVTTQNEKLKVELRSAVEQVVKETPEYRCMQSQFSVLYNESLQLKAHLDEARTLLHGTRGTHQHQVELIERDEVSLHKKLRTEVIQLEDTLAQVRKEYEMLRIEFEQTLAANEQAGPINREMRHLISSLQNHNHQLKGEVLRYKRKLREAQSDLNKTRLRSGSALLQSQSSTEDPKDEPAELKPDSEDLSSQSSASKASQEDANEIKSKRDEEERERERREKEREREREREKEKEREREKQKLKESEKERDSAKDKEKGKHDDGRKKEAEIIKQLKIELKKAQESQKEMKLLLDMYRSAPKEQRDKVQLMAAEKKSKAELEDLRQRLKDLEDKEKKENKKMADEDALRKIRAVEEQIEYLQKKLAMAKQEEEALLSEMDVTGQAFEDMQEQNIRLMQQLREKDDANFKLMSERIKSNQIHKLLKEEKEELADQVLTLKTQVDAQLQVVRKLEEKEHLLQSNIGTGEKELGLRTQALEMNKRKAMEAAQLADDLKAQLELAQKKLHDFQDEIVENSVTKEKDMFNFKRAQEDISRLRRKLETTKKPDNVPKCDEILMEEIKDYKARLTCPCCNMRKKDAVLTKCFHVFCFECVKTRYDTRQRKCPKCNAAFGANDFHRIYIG
UniProt P35250, whole entry: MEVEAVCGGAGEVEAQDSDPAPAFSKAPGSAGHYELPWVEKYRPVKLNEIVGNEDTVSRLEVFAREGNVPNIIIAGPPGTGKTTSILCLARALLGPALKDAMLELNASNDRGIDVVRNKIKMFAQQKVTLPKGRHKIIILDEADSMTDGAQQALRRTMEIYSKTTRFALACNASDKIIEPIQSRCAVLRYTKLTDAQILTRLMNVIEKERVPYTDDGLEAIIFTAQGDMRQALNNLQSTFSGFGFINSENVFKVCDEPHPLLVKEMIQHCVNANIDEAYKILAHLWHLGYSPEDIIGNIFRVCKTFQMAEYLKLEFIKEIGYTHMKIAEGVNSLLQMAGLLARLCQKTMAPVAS
UniProt P05386, whole entry: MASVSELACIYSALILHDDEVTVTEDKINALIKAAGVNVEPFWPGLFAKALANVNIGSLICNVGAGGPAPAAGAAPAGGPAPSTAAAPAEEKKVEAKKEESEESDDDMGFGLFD
UniProt Q9BWE0: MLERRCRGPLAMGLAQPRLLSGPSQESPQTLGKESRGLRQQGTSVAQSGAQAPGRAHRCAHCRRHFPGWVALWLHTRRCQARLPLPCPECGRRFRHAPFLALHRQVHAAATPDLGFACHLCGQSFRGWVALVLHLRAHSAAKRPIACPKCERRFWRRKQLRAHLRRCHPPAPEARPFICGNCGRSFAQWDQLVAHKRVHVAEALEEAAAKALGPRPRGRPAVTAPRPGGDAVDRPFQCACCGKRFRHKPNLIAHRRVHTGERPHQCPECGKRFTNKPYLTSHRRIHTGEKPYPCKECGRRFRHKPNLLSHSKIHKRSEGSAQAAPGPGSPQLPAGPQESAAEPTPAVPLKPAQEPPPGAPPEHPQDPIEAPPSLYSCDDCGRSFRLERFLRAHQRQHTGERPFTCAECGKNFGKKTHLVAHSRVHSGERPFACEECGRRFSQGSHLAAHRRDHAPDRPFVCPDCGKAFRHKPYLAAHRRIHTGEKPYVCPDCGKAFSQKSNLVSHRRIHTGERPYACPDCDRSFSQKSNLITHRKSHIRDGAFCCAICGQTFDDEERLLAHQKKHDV

Compound: COc1ccc(Cn2ccc3ccc(C(=O)NO)cc32)cc1
Assay: dose-dependent thermal stabilisation call (2D-TPP, DLPTP, 10% FDR) (binary (1 = stabilised)); higher = stabilised by the compound
Conditions: system: HL-60 intact cells; concentration range 0.04-10 µM

Row | Target | dose-dependent thermal stabilisation call
1 | RNF113A (UniProt O15541) | inactive: 0
2 | RPL10 (UniProt P27635) | inactive: 0
3 | RPS3A (UniProt P61247) | inactive: 0
4 | RWDD2B (UniProt P57060) | inactive: 0
5 | RCAN1 (UniProt P53805) | inactive: 0
6 | RNGTT (UniProt O60942) | inactive: 0
7 | RBX1 (UniProt P62877) | inactive: 0
8 | RFC4 (UniProt P35249) | inactive: 0
9 | RNF40 (UniProt O75150) | inactive: 0
10 | RPL31 (UniProt P62899) | inactive: 0
11 | RIC8B (UniProt Q9NVN3) | inactive: 0
12 | RPL9 (UniProt P32969) | inactive: 0
13 | RCCD1 (UniProt A6NED2) | inactive: 0
14 | RIOK1 (UniProt Q9BRS2) | inactive: 0
15 | RPS6KA5 (UniProt O75582) | inactive: 0
16 | RNASEN (UniProt Q9NRR4) | inactive: 0
17 | RFX2 (UniProt P48378) | inactive: 0
18 | RPS16 (UniProt P62249) | inactive: 0
19 | RBPJ (UniProt Q06330) | inactive: 0
20 | RING1 (UniProt Q06587) | inactive: 0
21 | RPE (UniProt Q96AT9) | inactive: 0
22 | RNF123 (UniProt Q5XPI4) | inactive: 0
23 | RELL1 (UniProt Q8IUW5) | inactive: 0
24 | SAAL1 (UniProt Q96ER3) | inactive: 0
25 | RPL37 (UniProt P61927) | active: 1

Some of the entries so far, with tabs.
Row	Target	dose-dependent thermal stabilisation call
2	RPL10 (UniProt P27635)	inactive: 0
3	RPS3A (UniProt P61247)	inactive: 0

(continued)

Row | Target | dose-dependent thermal stabilisation call
26 | RFX7 (UniProt Q2KHR2) | inactive: 0
27 | RHOT1 (UniProt Q8IXI2) | inactive: 0
28 | RP6-213H19 1 | inactive: 0
29 | RPL24 (UniProt P83731) | inactive: 0
30 | RHOXF2 (UniProt Q9BQY4) | inactive: 0
31 | RPTOR (UniProt Q8N122) | inactive: 0
32 | RPS6KC1 (UniProt Q96S38) | inactive: 0
33 | RCOR3 (UniProt Q9P2K3) | inactive: 0
34 | RPS9 (UniProt P46781) | inactive: 0
35 | RPA3 (UniProt P35244) | inactive: 0
36 | REL (UniProt Q04864) | inactive: 0
37 | RPS6KA3 (UniProt P51812) | active: 1
38 | RNF149 (UniProt Q8NC42) | inactive: 0
39 | RRP7A (UniProt Q9Y3A4) | inactive: 0
40 | RPL35 (UniProt P42766) | inactive: 0
41 | RNASEH2A (UniProt O75792) | inactive: 0
42 | RPIA (UniProt P49247) | inactive: 0
43 | RPLP0-LIKE | inactive: 0
44 | RRN3 (UniProt Q9NYV6) | inactive: 0
45 | RIPK2 (UniProt O43353) | inactive: 0
46 | RFC1 (UniProt P35251) | inactive: 0
47 | RSU1 (UniProt Q15404) | inactive: 0
48 | RPP30 (UniProt P78346) | inactive: 0
49 | RPAP2 (UniProt Q8IXW5) | inactive: 0
50 | RPS14 (UniProt P62263) | inactive: 0

Row | Target | dose-dependent thermal stabilisation call
51 | RRP9 (UniProt O43818) | inactive: 0
52 | RFFL (UniProt Q8WZ73) | inactive: 0
53 | RICTOR (UniProt Q6R327) | inactive: 0
54 | ROGDI (UniProt Q9GZN7) | inactive: 0
55 | RREB1 (UniProt Q92766) | inactive: 0
56 | RHOF (UniProt Q9HBH0) | inactive: 0
57 | RPS10 (UniProt P46783) | inactive: 0
58 | RFX5 (UniProt P48382) | inactive: 0
59 | RPS27A (UniProt P62979) | inactive: 0
60 | RNF20 (UniProt Q5VTR2) | inactive: 0
61 | RGS18 (UniProt Q9NS28) | inactive: 0
62 | RP11-529I10 4 | inactive: 0
63 | RFC2 (UniProt P35250) | inactive: 0
64 | RPL38 (UniProt P63173) | inactive: 0
65 | RHOG (UniProt P84095) | inactive: 0
66 | RPL14 (UniProt P50914) | inactive: 0
67 | RPL22 (UniProt P35268) | inactive: 0
68 | RTF1 (UniProt Q92541) | inactive: 0
69 | RPLP1 (UniProt P05386) | inactive: 0
70 | REPIN1 (UniProt Q9BWE0) | inactive: 0
71 | RRAGC (UniProt Q9HB90) | inactive: 0
72 | RUFY1 (UniProt Q96T51) | inactive: 0
73 | RPS7 (UniProt P62081) | inactive: 0
74 | RHBDD2 (UniProt Q6NTF9) | inactive: 0
75 | RPL27 (UniProt P61353) | inactive: 0

Shown as a markdown table: entries from further up

| Row | Target | dose-dependent thermal stabilisation call |
| --- | --- | --- |
| 35 | RPA3 (UniProt P35244) | inactive: 0 |
| 36 | REL (UniProt Q04864) | inactive: 0 |
